We go through 2 molecules from paper PMC3846774.

These are yes or no findings as the source states them, for the method shown. Some entries that bind do so weakly or less than the wild type. Where a sequence is shown, tags or fusion partners need not be part of it.

What all share (test): tandem affinity purification (TAP) with Western blotting; TAP-tagged bait purified from yeast cells expressing Mak5-GFP; 50 mM Tris-HCl pH 7.5, 100 mM NaCl, 1.5 mM MgCl2, 5% glycerol, 0.1% NP-40; TEV cleavage, elution from Calmodulin-Sepharose with 5 mM EGTA; eluates blotted with anti-GFP, anti-Nop7, anti-Ebp2, anti-Rpl3
For orientation: In western blotting, separated proteins are transferred to a membrane and probed.

One assay deals with T1, Lsg1-TAP (S. cerevisiae) (UniProt P53145).
T1 sequence: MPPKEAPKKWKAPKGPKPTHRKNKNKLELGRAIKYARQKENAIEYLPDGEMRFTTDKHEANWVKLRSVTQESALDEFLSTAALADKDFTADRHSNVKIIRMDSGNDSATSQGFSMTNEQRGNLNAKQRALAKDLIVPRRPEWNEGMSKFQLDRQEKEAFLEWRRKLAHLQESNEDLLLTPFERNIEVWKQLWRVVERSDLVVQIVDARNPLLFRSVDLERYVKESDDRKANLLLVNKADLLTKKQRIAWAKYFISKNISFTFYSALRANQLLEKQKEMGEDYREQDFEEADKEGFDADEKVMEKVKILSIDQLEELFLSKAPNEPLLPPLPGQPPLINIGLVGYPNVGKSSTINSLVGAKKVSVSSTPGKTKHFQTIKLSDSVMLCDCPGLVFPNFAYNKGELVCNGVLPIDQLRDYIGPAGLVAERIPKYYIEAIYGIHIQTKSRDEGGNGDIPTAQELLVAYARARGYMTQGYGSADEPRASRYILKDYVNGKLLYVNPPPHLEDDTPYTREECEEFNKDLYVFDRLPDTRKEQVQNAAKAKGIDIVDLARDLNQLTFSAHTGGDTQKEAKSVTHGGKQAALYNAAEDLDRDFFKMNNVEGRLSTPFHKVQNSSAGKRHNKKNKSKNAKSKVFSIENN

The target in a further assay is T2, Arx1-TAP (S. cerevisiae) (UniProt Q03862).
T2 sequence: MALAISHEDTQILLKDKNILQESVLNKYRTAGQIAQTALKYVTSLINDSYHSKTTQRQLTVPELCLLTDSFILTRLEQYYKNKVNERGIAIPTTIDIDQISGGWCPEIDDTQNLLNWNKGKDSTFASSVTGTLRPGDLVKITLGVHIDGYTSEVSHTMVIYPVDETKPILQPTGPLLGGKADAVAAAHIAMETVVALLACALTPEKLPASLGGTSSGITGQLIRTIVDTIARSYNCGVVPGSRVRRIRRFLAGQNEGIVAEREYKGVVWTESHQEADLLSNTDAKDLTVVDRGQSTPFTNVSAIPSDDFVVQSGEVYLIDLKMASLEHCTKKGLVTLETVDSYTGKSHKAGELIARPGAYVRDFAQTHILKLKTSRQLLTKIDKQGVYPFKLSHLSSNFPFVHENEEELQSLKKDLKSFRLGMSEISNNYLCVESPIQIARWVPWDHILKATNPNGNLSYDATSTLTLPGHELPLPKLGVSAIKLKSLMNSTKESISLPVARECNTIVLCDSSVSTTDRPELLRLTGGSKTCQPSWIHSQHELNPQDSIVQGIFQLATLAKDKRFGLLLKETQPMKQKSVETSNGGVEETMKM

Another assay deals with T3, Rix1-TAP (S. cerevisiae) (UniProt P38883).
T3 sequence: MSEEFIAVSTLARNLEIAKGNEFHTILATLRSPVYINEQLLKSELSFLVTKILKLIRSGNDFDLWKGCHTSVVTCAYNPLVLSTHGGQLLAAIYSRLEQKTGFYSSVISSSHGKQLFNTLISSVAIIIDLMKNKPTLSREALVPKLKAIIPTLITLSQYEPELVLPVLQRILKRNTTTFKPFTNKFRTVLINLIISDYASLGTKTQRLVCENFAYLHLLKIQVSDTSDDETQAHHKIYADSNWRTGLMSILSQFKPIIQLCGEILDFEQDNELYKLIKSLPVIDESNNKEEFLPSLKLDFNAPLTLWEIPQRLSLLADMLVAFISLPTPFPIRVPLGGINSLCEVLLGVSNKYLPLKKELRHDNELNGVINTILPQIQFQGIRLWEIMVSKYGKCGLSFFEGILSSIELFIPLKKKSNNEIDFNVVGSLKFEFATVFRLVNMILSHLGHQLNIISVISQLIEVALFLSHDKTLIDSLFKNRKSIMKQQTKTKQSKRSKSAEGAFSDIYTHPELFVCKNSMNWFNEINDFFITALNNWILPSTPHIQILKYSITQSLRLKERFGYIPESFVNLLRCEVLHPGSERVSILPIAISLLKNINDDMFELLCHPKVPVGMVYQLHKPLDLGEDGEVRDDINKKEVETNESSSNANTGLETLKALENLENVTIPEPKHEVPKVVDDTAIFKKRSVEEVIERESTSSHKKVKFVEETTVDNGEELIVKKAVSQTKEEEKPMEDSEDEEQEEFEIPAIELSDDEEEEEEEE

The target in a further assay is T4, Ssf1-TAP (S. cerevisiae) (UniProt P38789).
T4 sequence: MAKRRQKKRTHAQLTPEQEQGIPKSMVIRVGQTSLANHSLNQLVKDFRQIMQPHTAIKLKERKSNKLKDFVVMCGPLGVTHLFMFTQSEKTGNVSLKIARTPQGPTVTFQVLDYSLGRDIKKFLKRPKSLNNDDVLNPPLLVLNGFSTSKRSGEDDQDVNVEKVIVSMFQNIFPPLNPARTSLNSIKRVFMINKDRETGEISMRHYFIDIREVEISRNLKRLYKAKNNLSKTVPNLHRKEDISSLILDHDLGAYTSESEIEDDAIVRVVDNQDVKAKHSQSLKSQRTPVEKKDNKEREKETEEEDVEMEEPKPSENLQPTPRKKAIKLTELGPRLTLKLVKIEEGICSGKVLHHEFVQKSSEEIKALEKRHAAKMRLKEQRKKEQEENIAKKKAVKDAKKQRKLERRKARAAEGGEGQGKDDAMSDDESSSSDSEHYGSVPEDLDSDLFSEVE

The next assay deals with T5, Nsa1-TAP (S. cerevisiae) (UniProt P53136).
T5 sequence: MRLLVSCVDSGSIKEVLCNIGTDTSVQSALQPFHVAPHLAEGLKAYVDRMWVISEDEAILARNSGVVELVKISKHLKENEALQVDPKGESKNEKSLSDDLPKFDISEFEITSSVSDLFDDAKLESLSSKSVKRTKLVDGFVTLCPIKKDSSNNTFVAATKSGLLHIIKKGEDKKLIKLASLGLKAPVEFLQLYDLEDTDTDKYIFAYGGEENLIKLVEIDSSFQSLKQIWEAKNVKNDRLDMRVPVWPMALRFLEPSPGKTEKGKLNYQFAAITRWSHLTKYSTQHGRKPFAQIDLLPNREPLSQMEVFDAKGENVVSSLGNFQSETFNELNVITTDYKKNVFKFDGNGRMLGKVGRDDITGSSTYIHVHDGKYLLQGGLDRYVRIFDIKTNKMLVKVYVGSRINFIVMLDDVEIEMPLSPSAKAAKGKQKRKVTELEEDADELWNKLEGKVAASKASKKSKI

B1: Mak5-GFP (protein, UniProt P38112 1-773)
chain: MGKKRAPQKGKTVTKPQEIIVDESKLNWKPVDIPDTLDDFGGFYGLEEIDGVDVKVVDGKVTFVTKKDSKVLKDSNKEKVGDDQESVENESGSDSESELLEFKNLDDIKEGELSAASYSSSDEDEQGNIESSKLTDPSEDVDEDVDEDVLKENVFNKDINIDDISPVNLPEWTNLAPLSMTILQSLQNLNFLRPTEIQKKSIPVIMQGVDVMGKASTGSGKTLAYGIPIVEKLISNFSQKNKKPISLIFTPTRELAHQVTDHLKKICEPVLAKSQYSILSLTGGLSIQKQQRLLKYDNSGQIVIATPGRFLELLEKDNTLIKRFSKVNTLILDEADRLLQDGHFDEFEKIIKHLLVERRKNRENSEGSSKIWQTLIFSATFSIDLFDKLSSSRQVKDRRFKNNEDELNAVIQHLMSKIHFNSKPVIIDTNPESKVSSQIKESLIECPPLERDLYCYYFLTMFPGTTLIFCNAIDSVKKLTVYLNNLGIPAFQIHSSMTQKNRLKSLERFKQQSAKQKTINHSNPDSVQLSTVLIASDVAARGLDIPGVQHVIHYHLPRSTDIYIHRSGRTARAGSEGVSAMICSPQESMGPLRKLRKTLATKNSVSTDLNSRSTNRKPIKWQNTVPLLPIETDILSQLRERSRLAGELADHEIASNSLRKDDNWLKKAADELGIDVDSDEDDISKSNSDTFLLKNKNKKMQKTINKDKVKAMRATLNELLSVPIRKDRRQKYLTGGLVNLADNLVKKRGHNSIIGHEKTNALETLKKKKKRNN
Consider B1, for which the binding entry with Lsg1-TAP (S. cerevisiae) is “no binding”; with Arx1-TAP (S. cerevisiae), “no binding”; with Rix1-TAP (S. cerevisiae), “no binding”; in the assay with Ssf1-TAP (S. cerevisiae), “binds weakly”; with Nsa1-TAP (S. cerevisiae), “binds weakly”.

B2: Ebp2 (protein, UniProt P36049 1-427)
chain: MAKGFKLKELLSHQKEIEKAEKLENDLKKKKSQELKKEEPTIVTASNLKKLEKKEKKADVKKEVAADTEEYQSQALSKKEKRKLKKELKKMQEQDATEAQKHMSGDEDESGDDREEEEEEEEEEEGRLDLEKLAKSDSESEDDSESENDSEEDEDVVAKEESEEKEEQEEEQDVPLSDVEFDSDADVVPHHKLTVNNTKAMKHALERVQLPWKKHSFQEHQSVTSETNTDEHIKDIYDDTERELAFYKQSLDAVLVARDELKRLKVPFKRPLDYFAEMVKSDEHMDKIKGKLIEEASDKKAREEARRQRQLKKFGKQVQNATLQKRQLEKRETLEKIKSLKNKRKHNEIDHSEFNVGVEEEVEGKRFDRGRPNGKRAAKNAKYGQGGMKRFKRKNDATSSADVSGFSSRKMKGKTNRPGKSRRARRF
On to B2, for which the results for the binding result in the assay with Rix1-TAP (S. cerevisiae) and in the assay with Nsa1-TAP (S. cerevisiae) were “no binding” and “binds”, respectively.
